doi:10.1101/2023.09.11.557111
Results are given in words; binding and its absence hold for the method and conditions named. In cells and extracts the contact can be indirect. Some entries that bind do so weakly or less than the wild type.

Sequences of proteins named here, by UniProt entry; tags and fusion partners are left off. A change or cut given only in a name is not applied to a line headed by its entry.
UniProt O96028, whole entry, looked up, stated change not applied: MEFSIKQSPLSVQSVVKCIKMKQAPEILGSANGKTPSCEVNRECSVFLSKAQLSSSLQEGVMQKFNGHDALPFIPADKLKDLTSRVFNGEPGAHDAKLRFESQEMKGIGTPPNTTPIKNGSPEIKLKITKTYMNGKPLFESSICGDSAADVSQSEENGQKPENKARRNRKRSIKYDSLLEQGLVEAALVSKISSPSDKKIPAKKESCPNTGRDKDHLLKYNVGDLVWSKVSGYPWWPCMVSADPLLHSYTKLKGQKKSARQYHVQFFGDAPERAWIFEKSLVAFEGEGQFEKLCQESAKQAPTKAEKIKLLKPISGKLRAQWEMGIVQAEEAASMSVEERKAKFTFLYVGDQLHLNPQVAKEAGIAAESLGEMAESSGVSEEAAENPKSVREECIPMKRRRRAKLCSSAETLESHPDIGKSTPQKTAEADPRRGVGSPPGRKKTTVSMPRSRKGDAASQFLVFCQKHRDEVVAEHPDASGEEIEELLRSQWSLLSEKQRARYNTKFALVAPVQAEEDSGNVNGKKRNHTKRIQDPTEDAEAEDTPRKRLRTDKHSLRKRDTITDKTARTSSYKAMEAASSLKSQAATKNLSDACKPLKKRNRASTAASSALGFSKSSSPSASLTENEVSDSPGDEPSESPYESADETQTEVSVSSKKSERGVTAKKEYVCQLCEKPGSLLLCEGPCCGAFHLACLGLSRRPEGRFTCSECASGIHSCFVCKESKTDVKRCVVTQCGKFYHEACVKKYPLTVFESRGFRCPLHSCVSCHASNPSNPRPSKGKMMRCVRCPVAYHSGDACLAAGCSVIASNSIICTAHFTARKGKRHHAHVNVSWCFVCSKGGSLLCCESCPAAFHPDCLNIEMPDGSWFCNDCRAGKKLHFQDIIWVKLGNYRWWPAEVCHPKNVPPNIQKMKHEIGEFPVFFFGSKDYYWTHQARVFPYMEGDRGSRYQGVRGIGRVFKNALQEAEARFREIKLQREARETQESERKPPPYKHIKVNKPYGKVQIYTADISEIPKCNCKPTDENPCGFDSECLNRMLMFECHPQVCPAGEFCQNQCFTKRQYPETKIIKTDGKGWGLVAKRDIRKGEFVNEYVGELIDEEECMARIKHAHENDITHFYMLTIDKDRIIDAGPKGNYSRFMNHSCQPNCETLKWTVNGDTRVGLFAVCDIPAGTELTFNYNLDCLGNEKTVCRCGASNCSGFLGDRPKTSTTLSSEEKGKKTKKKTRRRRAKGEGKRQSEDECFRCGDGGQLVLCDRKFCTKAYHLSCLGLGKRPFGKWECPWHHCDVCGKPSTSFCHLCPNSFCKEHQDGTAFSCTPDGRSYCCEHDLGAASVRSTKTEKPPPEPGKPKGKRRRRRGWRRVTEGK
UniProt Q8BVE8, whole entry: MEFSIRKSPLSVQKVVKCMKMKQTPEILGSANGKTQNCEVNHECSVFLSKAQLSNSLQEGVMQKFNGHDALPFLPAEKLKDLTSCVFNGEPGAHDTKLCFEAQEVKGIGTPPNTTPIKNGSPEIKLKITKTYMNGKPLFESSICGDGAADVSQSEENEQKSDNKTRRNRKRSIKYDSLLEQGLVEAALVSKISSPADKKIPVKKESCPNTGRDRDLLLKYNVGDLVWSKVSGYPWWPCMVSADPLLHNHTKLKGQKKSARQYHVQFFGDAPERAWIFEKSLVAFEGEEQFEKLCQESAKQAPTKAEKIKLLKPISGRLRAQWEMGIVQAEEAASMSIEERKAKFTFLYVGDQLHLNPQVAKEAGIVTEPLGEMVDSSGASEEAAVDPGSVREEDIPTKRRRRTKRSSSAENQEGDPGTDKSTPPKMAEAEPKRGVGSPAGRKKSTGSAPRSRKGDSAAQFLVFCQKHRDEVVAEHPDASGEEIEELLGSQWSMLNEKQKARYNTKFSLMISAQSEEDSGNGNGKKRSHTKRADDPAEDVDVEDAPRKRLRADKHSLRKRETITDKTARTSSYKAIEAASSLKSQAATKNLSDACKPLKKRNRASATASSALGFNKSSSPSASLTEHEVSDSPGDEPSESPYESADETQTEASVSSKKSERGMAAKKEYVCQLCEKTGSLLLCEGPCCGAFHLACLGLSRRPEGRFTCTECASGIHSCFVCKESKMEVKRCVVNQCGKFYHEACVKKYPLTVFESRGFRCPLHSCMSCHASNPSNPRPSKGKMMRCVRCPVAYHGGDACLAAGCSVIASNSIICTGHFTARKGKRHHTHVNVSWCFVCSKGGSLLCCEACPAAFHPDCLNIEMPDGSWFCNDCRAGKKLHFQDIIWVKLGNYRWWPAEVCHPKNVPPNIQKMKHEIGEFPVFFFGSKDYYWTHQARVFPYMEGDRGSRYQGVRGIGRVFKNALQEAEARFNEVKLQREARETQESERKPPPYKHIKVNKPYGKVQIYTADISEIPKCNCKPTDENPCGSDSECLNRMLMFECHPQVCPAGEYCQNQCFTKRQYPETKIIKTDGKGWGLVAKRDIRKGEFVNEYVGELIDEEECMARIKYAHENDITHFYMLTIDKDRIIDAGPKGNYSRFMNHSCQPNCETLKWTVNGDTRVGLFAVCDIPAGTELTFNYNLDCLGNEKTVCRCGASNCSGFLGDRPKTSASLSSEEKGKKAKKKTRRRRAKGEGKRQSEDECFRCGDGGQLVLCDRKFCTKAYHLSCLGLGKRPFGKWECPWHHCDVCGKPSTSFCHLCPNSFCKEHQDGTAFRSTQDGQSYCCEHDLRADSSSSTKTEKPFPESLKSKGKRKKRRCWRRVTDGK
UniProt Q04206, whole entry: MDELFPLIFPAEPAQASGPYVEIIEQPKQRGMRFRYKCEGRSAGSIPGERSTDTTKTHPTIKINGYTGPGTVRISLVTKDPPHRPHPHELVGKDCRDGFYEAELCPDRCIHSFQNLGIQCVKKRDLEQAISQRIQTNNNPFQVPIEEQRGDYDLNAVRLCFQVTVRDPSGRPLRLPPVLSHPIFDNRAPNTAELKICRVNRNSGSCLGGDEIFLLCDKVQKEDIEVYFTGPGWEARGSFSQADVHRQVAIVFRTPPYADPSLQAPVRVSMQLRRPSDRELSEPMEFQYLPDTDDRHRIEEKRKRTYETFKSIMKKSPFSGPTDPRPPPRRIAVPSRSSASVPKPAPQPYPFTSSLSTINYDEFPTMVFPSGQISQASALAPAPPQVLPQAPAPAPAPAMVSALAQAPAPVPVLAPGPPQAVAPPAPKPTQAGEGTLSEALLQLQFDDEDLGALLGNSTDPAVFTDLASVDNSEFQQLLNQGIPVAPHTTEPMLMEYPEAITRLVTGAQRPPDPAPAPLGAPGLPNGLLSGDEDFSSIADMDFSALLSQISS
UniProt Q04207, whole entry: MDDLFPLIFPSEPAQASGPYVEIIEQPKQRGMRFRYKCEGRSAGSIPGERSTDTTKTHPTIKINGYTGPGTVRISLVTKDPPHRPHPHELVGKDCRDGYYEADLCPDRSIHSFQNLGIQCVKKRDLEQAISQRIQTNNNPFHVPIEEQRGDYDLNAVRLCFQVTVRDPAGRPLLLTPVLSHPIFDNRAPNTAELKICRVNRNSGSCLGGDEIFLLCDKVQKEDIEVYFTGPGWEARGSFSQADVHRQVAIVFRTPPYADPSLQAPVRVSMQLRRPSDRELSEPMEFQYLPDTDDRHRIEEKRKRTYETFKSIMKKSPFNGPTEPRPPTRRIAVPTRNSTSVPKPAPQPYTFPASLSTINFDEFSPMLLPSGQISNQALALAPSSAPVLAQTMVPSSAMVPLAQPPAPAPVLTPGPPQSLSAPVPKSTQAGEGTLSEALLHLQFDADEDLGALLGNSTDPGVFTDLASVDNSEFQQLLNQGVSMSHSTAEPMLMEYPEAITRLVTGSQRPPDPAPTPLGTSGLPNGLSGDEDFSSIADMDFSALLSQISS

Tests used:
[1] = target: Flag-NSD2 Y1179A (UniProt O96028); test: co-IP
[2] = target: NSD2 (endogenous, KPC1199 cells) (mouse (endogenous in KPC1199)) (UniProt Q8BVE8); test: co-IP

| binding [1] | binding [2] | Substance |
| --- | --- | --- |
| binds |  | HA-p65 (full-length) (from UniProt Q04206 1-551) |
|  | binds | p65 (endogenous, KPC1199 cells) (from UniProt Q04207 1-549) |
